Experimental data taken from publication PMC11475020.

Biological target: T1, IscR-His (Caulobacter crescentus NA1000) (UniProt A0A0H3C7T4)
T1 sequence (looked up): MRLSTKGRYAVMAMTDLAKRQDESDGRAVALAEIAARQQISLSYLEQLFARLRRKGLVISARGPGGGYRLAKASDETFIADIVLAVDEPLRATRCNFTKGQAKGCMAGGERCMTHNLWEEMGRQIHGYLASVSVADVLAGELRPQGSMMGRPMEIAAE
Assay: EMSA
Settings: holo-IscR as purified, 1 mM Mg2+, 1 mM Mn2+; 10 mM HEPES, 40 mM KCl, 1 mM MgCl2, 1 mM MnCl2, 5% glycerol, 0.1 mg/ml salmon sperm DNA, 500 ng probe, pH not stated, 30 min room temperature; recombinant protein; residues 1-158; protein details: C-terminal His6 (pET28a); probe letters rebuilt from the primers and the genome

“GAATTCCTTGGCCAGGCGATAGCCGCCGCCGGGACCCCGGGCGCTGATCACCAGACCCTTGCGGCGCAGGCGCGCGAAAAGCTGTTCGAGATAGGAAAGCGAGATCTGCTGGCGCGCGGCGATCTCGGCCAGCGCCACGGCGCGACCATCGCTTTCGTCCTGGCGTTTGGCCAGGTCGGTCATCGCCATCACGGCGTATCGGCCTTTGGTGCTCAGGCGCATCAGCCTTACCCCTTGCAGATTCCGCGCGCATCGGCTTTTGCGTGTGCTACAAGCCGCGACTTCGCGCGCGGACCATCTGTCCGCATTGCGGCTGCGATTTAGGAAGACCAAGCGCGGCGGTCAAGTATTCCGGCCCCTAAAAAGCCGGGCTCCGCCGTCGCCAGCTGAAGGGGACGATATGCCTGATGTGATTTTGACCGGCGCGTCCGGCCGGATCGAGGGTCGAATTC (double strand) [iscR promoter fragment A]”: binds.

Where a protein sequence is shown, tags need not be part of it.
